This note sets out measurements from PubChem BioAssay AID2685 (National Center for Advancing Translational Sciences (NCATS), 2010).

A short description of the assay: qHTS Assay for Lipid Storage Modulators in Drosophila S3 Cells.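 On cell number change: cells counted by Cell Tracker Red CMTPX staining in the red channel.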 As to conditions: BODIPY lipid droplet fluorescence, 18-24 h; for cell number change: measured here: cell count max response, cells fed with added oleic acid. Put shortly:
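Laser-scanning cytometry quantifies lipid droplet accumulation (500–530 nm total intensity; droplet/cell object ratio) in oleic acid-fed (400 uM added) Drosophila S3 cells treated with a concentration series. 20 uM Triacsin C defined 100% inhibition.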

Setting [1] is: measured here: cell number channel AC50, cells fed with added oleic acid.
The mark [2] stands for this setting: measured here: lipid fluorescence (Fed channel) AC50, cells fed with added oleic acid.

This is one part of the list. The main result of the screen is listed elsewhere. These columns were measured beside it and carry no call. The list favours compounds with an active or inconclusive main result. Words in brackets tell the shape of the fitted curve; partial curves, single points and poor fits give uncertain potencies.

For `COc1cccc(NC(=O)c2cccnn2)c1`, the cell number change was -0.692%. The half-maximal activity concentration (AC50) (commonly the concentration giving half of the maximal activity seen) under setting [1] is 0.651 µM [falling, single point].

`O=C(Nc1ccc(S(=O)(=O)NCC2CCCO2)cc1)c1ccc(F)cc1` (configuration not stated): the cell number change was -35.5%. Moreover, the half-maximal activity concentration (AC50) under setting [1] was 4.61 µM [falling, full curve, poor fit]. Further, the AC50 under setting [2] is 6.31 µM [rising, partial curve, poor fit]. With `CC(C(=O)NCc1ccccc1Cl)N1C(=O)c2ccccc2C1=O` (configuration not stated), the cell number change is 3.85%. Turning to `COc1ccc(N(CC(=O)NCCSCc2ccccc2Cl)S(C)(=O)=O)cc1Cl`, the cell number change was -34.1%. Also, the AC50 under setting [1] was 6.51 µM [falling, partial curve]. On to `O=c1cnnc(SCCc2ccccc2)[nH]1`, for which the cell number change was determined as 38.2%. Under setting [1], the AC50 is 5.17 µM [rising, partial curve]. For `c1ccc(-c2nnc(OCC3CCCO3)c3ccccc23)cc1` (configuration not stated), the cell number change turned out to be 18.1%. Besides, the AC50 under setting [2] is 7.94 µM [rising, partial curve]. Turning to `CC(NC(=O)c1cc2c(s1)CS(=O)(=O)C2)c1ccccc1` (configuration not stated), the cell number change is -3.54%. For the same molecule, under setting [2], the concentration at half-maximal activity (AC50) is 6.51 µM [falling, single point]. In the case of `Cc1nn(-c2cccc([N+](=O)[O-])c2)c(N)c1-c1ccccc1`, the cell number change is -12.1%. The AC50 under setting [2] was 7.31 µM [falling, partial curve, poor fit]. As to `CC1CCCN(CCCNC(=O)CN2C(=O)CSc3ccc(S(=O)(=O)N4CCOCC4)cc32)C1` (configuration not stated), the cell number change was 18.7%. In the case of `CCOC(=O)c1[nH]c(C)c(C(=O)OCC(=O)NC(C)c2ccc(F)cc2)c1C` (configuration not stated), the cell number change was 2.3%. Besides, the AC50 under setting [1] was 6.51 µM [rising, single point]. On to `CCC(C)NC(=O)C1CCN(S(=O)(=O)c2cccnc2)CC1` (configuration not stated), for which the cell number change came to 41%. In addition, the half-maximal activity concentration (AC50) under setting [1] is 0.326 µM [rising, full curve]. The half-maximal activity concentration (AC50) under setting [2] was 1.3 µM [rising, partial curve, poor fit]. For the molecule `CCCn1nnc(NC(=O)c2ccc(Br)cc2)n1`, the cell number change is -23.8%.

For `CN(Cc1ccccc1)Cc1nc2c(c(=O)n(C)c(=O)n2C)n1Cc1ccc(F)cc1`, the cell number change came out at 19.4%. Also, under setting [1], the AC50 is 0.731 µM [rising, full curve, poor fit]. Also, the AC50 under setting [2] is 3.26 µM [rising, partial curve]. For the molecule `Cc1c(-c2ccc(/C=N/NC(=O)C(=O)Nc3ccccc3F)o2)cccc1[N+](=O)[O-]`, the cell number change is -24.6%. For the same molecule, the AC50 under setting [1] is 0.103 µM [falling, full curve, poor fit]. As to `CCn1c(CCC(N)=O)nnc1SCC(=O)Nc1cccc(S(=O)(=O)N2CCCC2)c1`, the cell number change is 3.76%.

Consider `COc1cccc(CNC(=O)CCCN2C(=O)C(c3ccccc3)Oc3cccnc32)c1OC` (configuration not stated), for which the cell number change is -23.2%. In addition, the concentration at half-maximal activity (AC50) under setting [2] is 20.6 µM [falling, single point].

Consider `CC(C)CN(C(=O)C1CC1)C1CCS(=O)(=O)C1` (configuration not stated), for which, under setting [1], the AC50 was 0.00461 µM [falling, full curve, poor fit].
